Test results taken from PubChem BioAssay AID1347426 (Functional Genomics Laboratory (NCATS/FGL), 2020).
Among all 31,000 sequences or so, about 1,400 (4.5%) were called active.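 The calls were made as follows: active = median seed-adjusted z-score above 1 or below -1; inactive = the rest.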 Some of the results follow.

Assay: Novel Modifiers of Survival Motor Neuron (SMN) Protein: Gene Identification via Genome-wide siRNA Screen;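 also: luminescence tracks full-length SMN protein made from the SMN2 reporter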
Conditions: HEK293T SMN2-luciferase reporter, siRNA knockdown, 72 h; actives lie on both sides
In short: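 siRNA screen, 10418 genes ×3 siRNAs; 1 pmol/well, lipid reverse transfection into HEK293T SMN2-luc reporter line. 72 h, 37 °C, 5% CO2; ONE-Glo readout. Data: neg-ctrl normalized, log10, MAD; hit = MAD >1.0 or < -1.0.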

Row | Sequence | median seed-adjusted z-score
1 | CAACCGCAGCGAGGAGUUUTT against TIMP1 | inactive: -0.0422
2 | CAAUAGCUUUCACAAGCUUTT against SNX8 | inactive: 0.115
3 | GUUUCUACAGCUACGCAUATT against RBL2 | inactive: 0.0211
4 | GAUUUAUAAAUCGAAAUGATT against CSDA | inactive: 0
5 | GCACUUCCAUUAUCUGAAATT against FNTB | inactive: -0.0163
6 | ACUCCAUCCUGAACCCUCATT against USP49 | inactive: 0.549
7 | AGUGGGAUGUGGUAAGCUATT against TRPV2 | inactive: -0.227
8 | GCACAAGCACUAACCUUAUTT against ZNF177 | inactive: 0.363
9 | GCCUGGUACUACUAGCUUUTT against TRPC5 | active: -1.14
10 | GUAACAUCAAUGACUAUUATT against ZNF131 | inactive: 0.645
11 | GUACAAGGAAUAUAUCAUUTT against PTGR1 | inactive: 0
12 | ACUCAAUCCUCGGACUUUUTT against NEUROD1 | inactive: 0
13 | GAAUCGGACAAAGACAGAATT against PRKCB1 | inactive: 0.0463
14 | CUGCUGCUCUGAAUCCGUUTT against TMEM86B | inactive: -0.465
15 | CUAUGACGGUGUGUGACCATT against TIGD5 | inactive: 0
16 | AGCUAAAUCCCAAGGAUGATT against PILRA | inactive: 0.0834
17 | GGAAACCCGUAGAUACAGATT against ZMAT1 | inactive: -0.123
18 | GCAAUGACAAAGCAACAAATT against GTF2B | inactive: -0.855
19 | CAAUAGAUCAAGUUAUACATT against KPNA5 | inactive: -0.174
20 | GGAUCUUGCAAUCAAGCUATT against TARBP1 | inactive: 0.491
21 | GCAAGAUCCGAGAAGAAUATT against TUBB | inactive: -0.307
22 | GAUCAGAUGGGUCAAGAUATT against SMAD5 | inactive: -0.701
23 | CCAACGACCUGGGCAAAAATT against MCAM | inactive: -0.0884

Quoted from the listing.
CUGCUGCUCUGAAUCCGUUTT against TMEM86B | median seed-adjusted z-score: inactive: -0.465
CAAUAGCUUUCACAAGCUUTT against SNX8 | median seed-adjusted z-score: inactive: 0.115
GUACAAGGAAUAUAUCAUUTT against PTGR1 | median seed-adjusted z-score: inactive: 0

Next records

Row | Sequence | median seed-adjusted z-score
24 | CUAUGGUCUAUGCACAAAATT against DHRS12 | inactive: 0.118
25 | CCAUGGAUUUUAUGAGGAATT against ECHDC1 | inactive: 0.554
26 | GCAGGGAUCUUACAUCUAUTT against CENTD2 | inactive: -0.305
27 | GCCUCACCACCGAUGAGUATT against BLVRB | inactive: 0.0133
28 | AGACCGUAAUUAUCGUCCUTT against EDG1 | inactive: -0.316
29 | CGAUUAGUGGUUAAGACUUTT against OSCAR | inactive: 0.114
30 | CGGAGAUCUGGGCACUGUATT against ZNF696 | inactive: 0.17
31 | GCAAAGAGGGUGACAAGUUTT against S100A4 | inactive: 0.567
32 | GCUCAUACCUCAUUCAACATT against ZNF565 | inactive: 0.457
33 | AGAGAAUACCUACAAAUGUTT against ZNF680 | inactive: 0.142
34 | GGCACUAGCUUGAGCCCAATT against QPRT | inactive: 0.15
35 | CCAAGGCUCGUGACACUAATT against XPR1 | inactive: -0.024
36 | AGAGAGUGAUUGCUCUUGATT against IMMP2L | inactive: 0.919
37 | GCUUUUACAACAUUUCGAATT against SLC30A4 | inactive: 0.158
38 | CUAUAGUGGUUCAUCACAATT against GCNT1 | inactive: 0.463
39 | UAGAUUUCCUCGCCUAUGATT against GSTM4 | inactive: -0.204
40 | GAUGAUACCCUGAACUUCATT against SEMA6A | inactive: -0.192
41 | CCUCUGCUCUCGUUAGCUATT against TRPC4AP | inactive: 0.106
42 | GUCGUCUCCUAAUCCUAUATT against RB1CC1 | inactive: 0.0878
43 | GGACAUUAGAAGAGUCCAATT against PPM1D | inactive: -0.66
44 | GGCAUUUACCUGACUGAUUTT against ENTPD1 | inactive: 0.567
45 | GCAUGGAGAUGAUUUACGUTT against PIK3C3 | inactive: 0
46 | GGUCACUUUUUAUUGUCCATT against ZNF621 | inactive: 0

Row | Sequence | median seed-adjusted z-score
47 | CUACCAGGAUGUUGAUAAATT against ZNF761 | inactive: 0.291
48 | GUAUCGUGGUGUCAGCUAUTT against JAK3 | inactive: -0.0926
49 | CAAUGUCCGUGAUCAUGAUTT against SARDH | inactive: -0.195
50 | GCAACGCCAGAAUCCAGCATT against FLT3LG | inactive: -0.166
51 | UGGUAAUAAUGUCAAGAAATT against GPD1L | inactive: 0.11
52 | GACCUGAAUUGUAUCAUCATT against MAPK3 | inactive: -0.573
53 | GCACAAGUUCUAAUGCUAATT against TTC5 | inactive: -0.296
54 | AAGUCUCAUUCGUGGUUGATT against ST6GALNAC6 | inactive: 0.367
55 | GGGAAUUUCUGACCUAGUATT against ABCD3 | inactive: -0.24
56 | ACCUGUUAAUGGCCUUUGUTT against SLC30A3 | active: -1.26
57 | CAGUGUAUUUUGCACGAGATT against TAOK1 | inactive: -0.0533
58 | GGUCUAAAGGUGGAGAUAATT against EIF2C2 | inactive: -0.183
59 | ACAGAUCUAGAAGACCUCATT against NAT9 | inactive: -0.657
60 | CAGUCAGAAUGCACACCUATT against ZNF570 | inactive: 0.662
61 | CGACCUAGUUCACGAUGAATT against TEKT3 | inactive: 0.0494
62 | GGCCUUACGCAUUUGCUGATT against RHOG | inactive: -0.354
63 | AAUUGAUAUGUAUACAGAATT against GSTA3 | inactive: 0.334
64 | GAAUCGCAAAGGUAGAAUUTT against DNAH7 | inactive: 0.287
65 | CGAUGACAAAGUUUAUUCATT against FAM3B | inactive: -0.327
66 | CCAACGGCAUCGACAUGAATT against KCNH2 | inactive: 0.1
67 | GCCCAUUCUUUCAUCCGAATT against ZNF462 | inactive: 0.0487
68 | GCCUGCAAAAUGUUCCUCATT against VAV2 | inactive: 0.975
69 | GCUGCGUCCAGGAAGAUUATT against PSMC6 | inactive: -0.578
